# Reference: publication PMC10518311
# Amino acid sequences for entries named in this document (tags omitted).
# UniProt Q8TDS4: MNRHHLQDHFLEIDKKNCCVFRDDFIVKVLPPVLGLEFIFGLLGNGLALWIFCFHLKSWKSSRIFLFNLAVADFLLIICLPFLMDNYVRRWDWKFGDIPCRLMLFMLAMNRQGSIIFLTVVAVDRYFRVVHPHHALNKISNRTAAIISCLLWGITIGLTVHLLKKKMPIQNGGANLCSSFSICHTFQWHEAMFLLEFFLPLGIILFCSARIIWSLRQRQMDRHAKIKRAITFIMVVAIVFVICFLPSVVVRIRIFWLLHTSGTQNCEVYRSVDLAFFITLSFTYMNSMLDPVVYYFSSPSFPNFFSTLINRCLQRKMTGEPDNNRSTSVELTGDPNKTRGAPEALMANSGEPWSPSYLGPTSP
# UniProt P49407: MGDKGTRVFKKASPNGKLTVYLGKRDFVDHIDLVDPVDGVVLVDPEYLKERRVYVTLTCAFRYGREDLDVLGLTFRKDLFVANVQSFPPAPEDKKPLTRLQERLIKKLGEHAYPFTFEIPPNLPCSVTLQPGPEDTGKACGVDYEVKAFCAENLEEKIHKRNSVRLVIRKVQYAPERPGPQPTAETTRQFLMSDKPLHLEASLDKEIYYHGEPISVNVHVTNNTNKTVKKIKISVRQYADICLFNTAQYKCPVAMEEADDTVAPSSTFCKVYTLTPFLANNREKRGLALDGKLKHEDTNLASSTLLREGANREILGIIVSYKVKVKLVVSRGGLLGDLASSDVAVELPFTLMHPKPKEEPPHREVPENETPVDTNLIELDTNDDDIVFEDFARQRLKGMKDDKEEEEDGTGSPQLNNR
# Results are given in words; binding and its absence hold for the method and conditions named. Binding seen in cells or lysates may run through a third protein. Some results given as binding are weak or reduced against the parent protein; the word gives no strength.
# Biological target: HCAR2 followed by the SmBiT at C-terminus (human) (UniProt Q8TDS4)
# Test: split reporter; LgBiT-β-arrestin1 and HCAR2-SmBiT co-transfected in HEK293 cells; luminescence after stimulation with orthosteric agonist (MK-6892), with different concentrations of compound 9n
substance,measurement,value
β-arrestin1 fused the LgBiT at N-terminus (from UniProt P49407 1-418),binding,binds
